Results are given in words; binding and its absence hold for the method and conditions named. Some binding calls cover weakened binding; strength is not graded here.
Tests used:
Test in all cases: native gel or EMSA; nuclear extract from HDF-TERT cells (untreated or treated with IFNα or IFNγ for 24 hr) with a 32P-labeled DNA probe (E1A-ENH, Ad5 nt 271-288); composition of the DNA-protein complexes identified with specific antibodies to E2F, DP and Rb family members
[1] = target: E2F3 (human (endogenous in HDF-TERT)) (UniProt O00716)
[2] = target: E2F-4 (human (endogenous in HDF-TERT)) (UniProt Q16254)
[3] = target: E2F1 (human (endogenous in HDF-TERT)) (UniProt Q01094)

Sequences of proteins named here, by UniProt entry; tags and fusion partners are left off. A change or cut given only in a name is not applied to a line headed by its entry.
UniProt O00716: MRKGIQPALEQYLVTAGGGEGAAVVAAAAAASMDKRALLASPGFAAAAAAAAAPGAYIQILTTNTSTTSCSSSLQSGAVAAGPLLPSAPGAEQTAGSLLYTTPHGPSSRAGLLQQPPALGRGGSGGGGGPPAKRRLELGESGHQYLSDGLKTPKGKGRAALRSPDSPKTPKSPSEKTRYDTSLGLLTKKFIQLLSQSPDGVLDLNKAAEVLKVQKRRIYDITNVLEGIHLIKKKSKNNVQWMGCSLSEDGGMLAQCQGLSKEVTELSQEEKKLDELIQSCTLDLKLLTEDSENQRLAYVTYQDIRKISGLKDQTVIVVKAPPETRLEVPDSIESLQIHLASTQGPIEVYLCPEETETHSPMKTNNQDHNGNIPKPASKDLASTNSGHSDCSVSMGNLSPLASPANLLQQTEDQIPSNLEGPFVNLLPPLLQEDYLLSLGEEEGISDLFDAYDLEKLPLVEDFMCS
UniProt Q16254: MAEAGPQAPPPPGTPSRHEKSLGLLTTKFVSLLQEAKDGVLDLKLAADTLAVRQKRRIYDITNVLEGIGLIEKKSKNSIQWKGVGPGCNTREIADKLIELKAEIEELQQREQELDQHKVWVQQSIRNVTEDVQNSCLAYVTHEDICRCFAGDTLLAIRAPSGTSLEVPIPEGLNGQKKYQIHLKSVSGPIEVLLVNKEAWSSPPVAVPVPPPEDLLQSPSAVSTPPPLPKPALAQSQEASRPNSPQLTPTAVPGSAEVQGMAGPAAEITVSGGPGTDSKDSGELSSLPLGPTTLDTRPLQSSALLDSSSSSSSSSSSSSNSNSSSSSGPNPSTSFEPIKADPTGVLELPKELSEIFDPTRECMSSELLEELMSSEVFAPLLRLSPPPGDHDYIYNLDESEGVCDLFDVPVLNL
UniProt Q01094: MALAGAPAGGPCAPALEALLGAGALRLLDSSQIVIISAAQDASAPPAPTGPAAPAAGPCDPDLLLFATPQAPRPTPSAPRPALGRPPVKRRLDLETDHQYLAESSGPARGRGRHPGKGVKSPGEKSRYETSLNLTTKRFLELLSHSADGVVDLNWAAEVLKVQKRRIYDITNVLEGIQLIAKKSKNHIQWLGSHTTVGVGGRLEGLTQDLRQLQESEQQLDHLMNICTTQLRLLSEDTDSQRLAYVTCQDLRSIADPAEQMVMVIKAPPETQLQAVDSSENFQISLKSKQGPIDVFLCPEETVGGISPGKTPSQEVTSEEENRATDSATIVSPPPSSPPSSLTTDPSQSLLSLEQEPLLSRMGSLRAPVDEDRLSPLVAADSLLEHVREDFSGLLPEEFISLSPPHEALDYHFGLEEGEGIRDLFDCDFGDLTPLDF
UniProt Q14186: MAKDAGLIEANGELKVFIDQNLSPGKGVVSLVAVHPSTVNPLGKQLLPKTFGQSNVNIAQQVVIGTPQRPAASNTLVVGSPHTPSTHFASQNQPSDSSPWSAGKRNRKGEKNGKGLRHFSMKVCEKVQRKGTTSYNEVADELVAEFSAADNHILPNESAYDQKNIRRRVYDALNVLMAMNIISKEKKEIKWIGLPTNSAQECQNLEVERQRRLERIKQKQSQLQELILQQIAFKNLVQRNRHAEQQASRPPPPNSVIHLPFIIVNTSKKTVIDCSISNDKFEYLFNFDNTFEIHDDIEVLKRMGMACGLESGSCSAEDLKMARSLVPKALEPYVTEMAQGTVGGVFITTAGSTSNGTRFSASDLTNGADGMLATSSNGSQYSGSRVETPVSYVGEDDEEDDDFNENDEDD

- binding [1]: binds
- binding [2]: binds
- binding [3]: binds
Substance: DP-1 (from UniProt Q14186 1-410)

— article PMC4726734
